Test results published in publication PMC11444156.
No constants are given. Whether binding was seen depends on the method and setting. Binding seen in cells or lysates may run through a third protein. Some results given as binding are weak or reduced against the parent protein; the word gives no strength.

By UniProt entry, the sequences of proteins in these tests, tags left out.
UniProt Q6X632: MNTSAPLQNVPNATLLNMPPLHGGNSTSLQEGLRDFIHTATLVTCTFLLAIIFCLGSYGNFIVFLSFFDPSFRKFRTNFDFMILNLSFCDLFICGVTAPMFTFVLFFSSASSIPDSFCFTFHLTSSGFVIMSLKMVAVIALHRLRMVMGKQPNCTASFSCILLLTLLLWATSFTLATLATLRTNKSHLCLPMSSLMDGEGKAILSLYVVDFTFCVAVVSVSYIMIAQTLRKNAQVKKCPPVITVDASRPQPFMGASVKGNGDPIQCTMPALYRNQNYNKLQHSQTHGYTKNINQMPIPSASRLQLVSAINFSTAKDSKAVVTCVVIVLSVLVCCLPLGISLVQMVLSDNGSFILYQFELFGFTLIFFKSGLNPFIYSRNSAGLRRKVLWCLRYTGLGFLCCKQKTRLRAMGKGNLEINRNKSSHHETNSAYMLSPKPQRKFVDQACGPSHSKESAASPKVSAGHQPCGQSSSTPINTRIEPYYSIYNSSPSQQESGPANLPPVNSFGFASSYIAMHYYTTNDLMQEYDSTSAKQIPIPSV
UniProt P21279: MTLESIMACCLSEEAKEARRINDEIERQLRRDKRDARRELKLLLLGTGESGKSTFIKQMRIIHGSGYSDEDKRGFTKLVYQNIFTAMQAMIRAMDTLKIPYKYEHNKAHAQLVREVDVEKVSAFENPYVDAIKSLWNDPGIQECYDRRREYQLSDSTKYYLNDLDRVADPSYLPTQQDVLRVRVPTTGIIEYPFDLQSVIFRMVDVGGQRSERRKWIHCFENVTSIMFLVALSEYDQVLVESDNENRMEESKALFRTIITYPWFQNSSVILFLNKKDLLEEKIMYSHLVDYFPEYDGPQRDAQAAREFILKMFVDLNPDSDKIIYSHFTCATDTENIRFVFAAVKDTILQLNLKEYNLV

Biological target: 3xFlag-tagged mouse Gpr75 expressed in 293T cells (mouse) (UniProt Q6X632)
Assay: co-IP; 293T cells expressing HA-tagged Gnaq and 3xFlag-tagged Gpr75; Nonidet P-40 lysis buffer, Flag antibody-conjugated beads 2 hours at 4°C, eluted with 3xFlag peptides, immunoblot

- binding: binds
Substance: HA-tagged mouse Gnaq expressed in 293T cells (from UniProt P21279 1-359)
